Not every detail of the peptide structures is certain; ends, links or a residue may be inferred.
Legend:
M. persicae [1] = assay: Feeding of aphids with peptides in artificial diet (Example 2; peptide screening, honeydew); type: in vivo, Myzus persicae
Source text: (§1) First to Fourth generations of peptides were produced with varying structures and tested for CAPA receptor agonist activity, and screened for lethality in vivo against D. suzukii and M. persicae as per methods in example 2 and example 8. The top performing peptides were selected and gave rise to the list of CAPA1 and CAPA2 peptides provided above in Table 1 which were then further tested in the following applied examples.
The aphid feeding protocol was devised according to Sadeghi et al (2009) as explained in example 1. Feeding discs were designed and manufactured as above. A standard sucrose-based artificial diet for M. persicae (30 aphids per chamber, 3 chambers per experiment unless otherwise stated) was produced as described in example 1 (Sadeghi et al, J. Insect Science, 2009) and provided the basal diet to which peptides were added for screening purposes. Peptides were diluted individually in the artificial diet to 10^−5 M. Lethality was scored after up to 120 hours (IRAC guidelines for aphid testing).
Membrane discs were also included to collect ‘honeydew’ secreted by feeding aphids and stained with ninhydrin to observe feeding patterns.
Comparison of purple stain in controls to treated aphids, show there is very little colour on many membranes where peptides were added.
Capa peptides cause mortality in M. persicae via feeding: At 120 hours, AH383 and AH387 peptides induce ˜60% mean (and median) lethality. Although mean lethality is lower with AH270/PEGAH270 (40%), 100% lethality is observed in one sample of 30 insects (AH270); and 90% in at least one sample of each of AH383, AH387 and PEGAH270 (FIG. 3). Note that PEGAH270 is a pegylated form of peptide AH270.

Myzus persicae aphids = assay: Topical application by spraying, Potter Spray Tower (Example 3); type: in vivo; settings: 48 hours post spray
Experimental: Aphids were exposed to test peptides in the absence of additional external stress conditions.
Brassica rapa (Chinese cabbage; Wong Bok) were infested with 30 adult Myzus persicae aphids per plant. Aphids were left at least 2 hours to settle and begin feeding from the host plant.
Potter Spray Tower (Burkard Manufacturing) was ‘primed’ by spraying 1000 μl of liquid coating the inside of the tower. Vehicle spray only (Croda ATPlus UEP 100 LQ-(CQ) 0.1% v/v) was used as a control.
Spray volumes for all solutions were 3000 μl. […] After spraying was completed the plant was allowed to rest on the spray platform for 30 seconds to allow settling of the sprayed chemical.
Post peptide application, each condition was placed into its own individual Bugdorm (Watkins and Doncaster, 44545), to prevent repulsed or displaced aphids moving from one condition to another. Numbers of alive and dead aphids on the plant were counted 48 hours post spray, and the presence of any fresh nymphs noted. Plants were watered prior to spraying but not afterwards to eliminate the possibility of drowning any aphids present or washing off the sprayed liquid.
The vehicle control group was used to determine baseline lethality. Results for neuropeptide analogues were calculated as % lethality in the remaining population after adjustment for the baseline.

M. persicae [2] = assay: Feeding of aphids with peptides in artificial diet (Example 1); type: in vivo, Myzus persicae
Experimental: A standard artificial diet for M. persicae was produced as described in Van Emden (2009) and provided the basal diet to which peptides were added for screening purposes. Peptides were diluted individually in the artificial diet to a pre-determined concentration.
Feeding apparatus were constructed using a set-up developed by Sadeghi et al (2009). For this, a piece of Parafilm was stretched over a Plexiglas ring (h=4 cm, Ø=3 cm) and 100 μl of the artificial diet containing the desired neuropeptide analogue was pipette onto the Parafilm membrane. A second piece of Parafilm, stretched to 4 times the original thickness, was stretched over the original layer, sandwiching the artificial diet between two layers of Parafilm. A strip of Parafilm was wrapped around the circumference of the Plexiglas ring, sealing in the diet. A plastic ring (h=1.2 cm, Ø=3.4 cm) was subsequently placed over the Parafilm layer, creating a walled chamber in which to house test aphids in contact with the Parafilm layer containing the artificial diet. Finally, a small Petri dish (h=1 cm, Ø=3.6 cm), modified for ventilation with net cloth, was placed on top of each feeding apparatus to prevent aphid escape.
To obtain aphids for use in experiments, reproducing anholocyclic adults were placed on individual excised leaves of Chinese cabbage at densities of 5 adults per leaf and allowed to reproduce for 24 h. The stem of each excised leaf was held within a 0.5 mL Eppendorf tube containing water via a punctured hole in the Eppendorf lid, and placed individually within a microcage (L=4 cm, Ø=9.5 cm). Following 24h, adults were removed and resultant first instar nymphs (<1 day old and synchronised in age to within 24h) retained. Nymphs were allowed to develop on the Chinese cabbage for 5 days. On day 5, (3rd instar) nymphs were transferred onto the artificial diet containing a neuropeptide analogue at densities of 1 per feeding chamber and monitored daily until death. Aphids were transferred to fresh artificial diet (containing neuropeptide analogue or water control) every 5 days.
The water control group was used to determine baseline lethality. Results for neuropeptide analogues were calculated as % lethality in the remaining population after adjustment for the baseline.

[3] = test system: Drosophila suzukii larvae; assay: Drosophila suzukii larval feeding (Example 8; peptide screening); type: in vivo; design: key to D. suzukii (Sig Diff Grp): A indicates a significant difference in survival compared with control (blank).; B indicates a significant difference in survival compared with scrambled capa1.; C indicates a significant difference in survival compared with scrambled capa2; settings: for Feeding D. suzukii, % lethality in population after adjustment for baseline: 10^−5 M, 48 hr exposure; for D. suzukii (Mean% Lethality ± SD) / D. suzukii (Sig Diff Grp): Peptide screening, Table 5; for D. suzukii (Mean% Lethality ± SD): blank control 20.33; for D. suzukii (Sig Diff Grp): difference in survival
Experimental: as §1
Peptides were tested at concentrations ranging from [10^−4 M] to [10^−7 M] in a final volume of 200 μl of 0.8% agarose containing 0.09% m-Cresol purple pH marker dye (Sigma) and 5% sucrose (Sigma).
Agarose was melted in dH2O, before addition of sucrose and dye. The agarose/dye solution was then allowed to cool to 60° C. 96 well plates (flat-bottomed 3596 TC-plates; Corning) containing 20 μl volumes of neuropeptide per well were prepared, and 180 μl agarose/dye solution dispensed into each well via a Distriman repetitive micro-pipettor (Gilson). Controls contained 20 μl dH2O as a ‘sham’ treatment with 180 μl of the 0.8% agarose/dye solution. Plates were agitated at 800 rpm, to ensure mixing, at 60° C. (Eppendorf Thermomixer C). Plates were then allowed to cool, and agarose/dye solution solidify, prior to use.
Each peptide was assayed with a minimum of 7 to maximum 9 late L2/early L3 Spotted wing Drosophila, Drosophila suzukii, (feeding) larvae per well, minimum n=8 wells per peptide concentration and a minimum n=12 control wells per plate. The selected larvae were first washed 2× in ice cold Drosophila Schneider's liquid medium (ThermoFisher) before insertion into wells to remove extraneous food. After complete insertion of all larvae the plates were covered with breathable sealing membrane for multi-well plates (Sigma).
Larvae were assayed for lethality after 48 hr exposure at 21° C. and findings recorded. During examination the assay plate was kept on ice, to reduce larval locomotor activity (wandering), and larvae in each well were examined using a binocular stereomicroscope (Zeiss).
The water control group was used to determine baseline lethality. Results for neuropeptide analogues were calculated as % lethality in the remaining population after adjustment for the baseline. Results are shown in Tables 7 and 8 below, and in FIG. 1.

D. suzukii larvae = assay: Drosophila suzukii larval feeding (Example 9; dose response); type: in vivo; settings: Table 6, 10^−5 M, 48 hr and/or 72 h exposure (FIG. 7: AH270/PEGAH270 120 h)
Experimental: Dose response experiments were carried out for AH382, AH383, AH188, data shown for AH382 (a), AH383 (b), AH188 (c, 48 hours). Data are mean % lethality ±SEM for concentrations between 10^−4 M and 10^−7 M (a) AH382, (b) AH383 72 hours treatment; and between 10^−5 M and 10^−9 M (AH188, 3c), 48 hours treatment. The LD50 for AH382, AH383 and AH188 is 10^−6 M.
Further larval feeding assays with D. suzukii larvae were conducted as explained above in example 7. A total of 88 peptides were tested against D. suzukii larvae in 96 well plates at 10^−5 M in a final volume of 200 μl of 0.8% agarose containing 0.09% m-Cresol purple pH marker dye (Sigma) and 5% sucrose (Sigma). Controls contained dH2O (18% lethality) or native Capa-2 peptide (38% lethality) as a ‘sham’ treatment. Each peptide was assayed with a minimum of 7 to maximum 9 late L2/early L3 larvae per well, minimum n=8 wells per peptide concentration (minimum 56 larvae) and a minimum n=12 control wells (minimum 84 larvae) per plate. Larvae were assayed for lethality after 48 hr and/or 72 h exposure at 21° C. using a binocular stereomicroscope and findings recorded. Candidate peptides were also tested between 10^-4 and 10^-7 M (dose response curve).
Candidate peptides for D. suzukii with 70%-90% lethality are indicated below, in Table 6.

## CC(C)C[C@H](N=C(N(C)C)N(C)C)C(=O)N[C@H](C(=O)N[C@@H](C)C(=O)N[C@@H](Cc1ccccc1)C(=O)N1CCC[C@H]1C(=O)N[C@@H](CCCNC(=N)N)C(=O)N(C)[C@H](C(N)=O)C(C)C)C(C)C [AH257, Guanidyl-LVAFPR-(Me)V-NH2]
M. persicae [1]; Peptide screening, Table 5
  M. persicae (% Lethality): 25%
Myzus persicae aphids; 10^−4 M
  Spray Aphid, % lethality in population after adjustment for baseline: 21%
Myzus persicae aphids; 10^−5 M
  Spray Aphid, % lethality in population after adjustment for baseline: 41%
M. persicae [2]; 10^−5 M
  Feeding Aphid, % lethality in population after adjustment for baseline: 25%
[3]
  Feeding D. suzukii, % lethality in population after adjustment for baseline: 46%
  D. suzukii (Mean% Lethality ± SD): 45.57%
  D. suzukii (Sig Diff Grp): A

## CC(C)C[C@H](N=C(N(C)C)N(C)C)C(=O)N(C)[C@H](C(=O)N[C@@H](C)C(=O)N[C@@H](Cc1ccccc1)C(=O)N1CCC[C@H]1C(=O)N[C@@H](CCCNC(=N)N)C(=O)N[C@H](C(N)=O)C(C)C)C(C)C [AH259, Guanidyl-L-(Me)V-AFPRV-NH2]
Myzus persicae aphids; 10^−4 M
  Spray Aphid, % lethality in population after adjustment for baseline: 47%
Myzus persicae aphids; 10^−5 M
  Spray Aphid, % lethality in population after adjustment for baseline: 42%
M. persicae [2]; 10^−4 M
  Feeding Aphid, % lethality in population after adjustment for baseline: 18%
M. persicae [2]; 10^−5 M
  Feeding Aphid, % lethality in population after adjustment for baseline: 13%
M. persicae [2]; 10^−6 M
  Feeding Aphid, % lethality in population after adjustment for baseline: 24%
M. persicae [2]; 10^−7 M
  Feeding Aphid, % lethality in population after adjustment for baseline: 19%
[3]
  Feeding D. suzukii, % lethality in population after adjustment for baseline: 41%
  D. suzukii (Mean% Lethality ± SD): 40.63%
  D. suzukii (Sig Diff Grp): A

## CC(C)C[C@H](NC(=O)CCCCCN)C(=O)N[C@H](C(=O)N(C)[C@@H](C)C(=O)N[C@@H](Cc1ccccc1)C(=O)N1CCC[C@H]1C(=O)N[C@@H](CCCNC(=N)N)C(=O)N(C)[C@H](C(N)=O)C(C)C)C(C)C [AH270, H-Ahx-LV-(Me)A-FPR-(Me)V-NH2]
M. persicae [1]; M. persicae feeding, 10^−5 M, 120 hours
  mean lethality: 40%
M. persicae [1]; M. persicae feeding, 10^−5 M, 120 hours, single sample
  lethality observed in one sample of 30 insects: 100%
Myzus persicae aphids; 10^−5 M
  Spray Aphid, % lethality in population after adjustment for baseline: 27%
M. persicae [2]; 10^−5 M, 60 h
  Feeding Aphid, % lethality in population after adjustment for baseline: 43%
[3]
  Feeding D. suzukii, % lethality in population after adjustment for baseline: 27%
D. suzukii larvae
  % Lethality ± SEM: 75 ± 5%

From patent publication US20240373849A1, “INSECT NEUROPEPTIDE ANALOGUES” (THE UNIVERSITY COURT OF THE UNIVERSITY OF GLASGOW, priority 2020, published 2024)
